Screening data

The results are deposited in PubChem (AID1224904; Broad Institute, 2016).

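Selective DUX4 reporter inhibition in doxycycline-induced 293T-iDUX4 cells, scored as Gaussia percent activity minus Italica percent activity, after a 24-hour treatment.
The test concentration is not given here.
Percent difference between the Gaussia and Italica channels; more negative values mean more selective suppression of the DUX4 reporter, and higher values mean less activity.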

Values are in %.
The controls that fix the scale are not given here.
Common to all entries: measured here: selective DUX4 reporter inhibition.
This is a side read-out of the assay, for part of the compounds, not drawn at random.

{"smiles": "Cc1ccccc1S(=O)(=O)N(C)C[C@H]1OCc2ccccc2-c2c(n(C)c3ccccc23)C(=O)N([C@@H](C)CO)C[C@@H]1C", "Gaussia minus Italica difference (%)": "-10.77"}
{"smiles": "C[C@@H]1CN([C@H](C)CO)C(=O)CCCn2nncc2CO[C@@H]1CN(C)Cc1ccccc1C(F)(F)F", "Gaussia minus Italica difference (%)": "-5.217"}
{"smiles": "COc1ccc2c3c(n(C)c2c1)[C@H](CO)N(Cc1ccccc1Cl)CC31CCN(C(=O)CC2CC2)CC1", "Gaussia minus Italica difference (%)": "-8.157"}
{"smiles": "O=C(Nc1ccc2c(c1)[C@@H]1C[C@H](CC(=O)N3CCc4ccccc4C3)O[C@@H](CO)[C@@H]1O2)Nc1ccccc1F", "Gaussia minus Italica difference (%)": "-9.588"}
{"smiles": "COC(=O)[C@@H]1[C@@H](CO)[C@@H]2Cn3c(ccc(-c4ccccc4)c3=O)[C@@H]2N1Cc1ccccc1F", "Gaussia minus Italica difference (%)": "-4.241"}
{"smiles": "CC(C)[C@H](C)NC(=O)N(C)C[C@@H]1OCc2ccccc2-c2c(n(C)c3ccccc23)C(=O)N([C@H](C)CO)C[C@@H]1C", "Gaussia minus Italica difference (%)": "-3.029"}
{"smiles": "O=C(c1cccc(F)c1)N1CCCCN2[C@H](CO)[C@@H](c3ccc(/C=C/c4ccccc4)cc3)[C@@H]2C1", "Gaussia minus Italica difference (%)": "-7.732"}
{"smiles": "O=C(c1ccccc1F)N1CC(=O)N2[C@H](CO)[C@@H](c3ccc(C#Cc4ccccc4)cc3)[C@H]2C1", "Gaussia minus Italica difference (%)": "-4.647"}
{"smiles": "CC(=O)N1CCCCN2[C@H](C1)[C@@H](c1ccc(C#Cc3ccccc3F)cc1)[C@@H]2CO", "Gaussia minus Italica difference (%)": "-6.928"}
{"smiles": "C[C@@H]1CN([C@@H](C)CO)C(=O)c2ccccc2-c2ccccc2CO[C@@H]1CN(C)S(=O)(=O)c1ccc(Cl)cc1", "Gaussia minus Italica difference (%)": "3.642"}
{"smiles": "Cc1cccc(-c2ccc([C@H]3[C@@H](CO)N4CCCCN(S(=O)(=O)c5cccs5)C[C@@H]34)cc2)c1", "Gaussia minus Italica difference (%)": "0.5753"}
{"smiles": "CC(C)(C)[S@](=O)N1Cc2cc(C(=O)NCc3ccccc3F)nc(-c3cccc(-c4ccncc4)c3)c2[C@@H]1CCO", "Gaussia minus Italica difference (%)": "6.421"}
{"smiles": "CCC(=O)N1CC(=O)N2[C@H](C1)[C@H](c1ccc(C#CC3CCCCC3)cc1)[C@@H]2CO", "Gaussia minus Italica difference (%)": "-9.675"}
{"smiles": "O=C(C[C@@H]1CC[C@H]2[C@@H](COC[C@H](O)CN2Cc2nccs2)O1)NCc1ccc(-c2ccccc2)cc1", "Gaussia minus Italica difference (%)": "-4.712"}
{"smiles": "C[C@H](CO)N1C[C@H](C)[C@@H](CN(C)C(=O)Nc2ccc(-c3ccccc3)cc2)OCc2ccccc2-c2c(n(C)c3ccccc23)C1=O", "Gaussia minus Italica difference (%)": "-11.22"}
{"smiles": "CN(C)C(=O)c1ccc(-c2ccc3c(c2)[C@@H]2[C@@H](CCN2C(=O)c2ccccc2F)[C@H](CO)N3)cc1", "Gaussia minus Italica difference (%)": "4.338"}
{"smiles": "CCC(=O)N1CC2(CCN(Cc3ccccc3Cl)CC2)c2c([nH]c3cc(OC)ccc23)[C@H]1CO", "Gaussia minus Italica difference (%)": "1.673"}
{"smiles": "O=S(=O)(c1cccc(F)c1)N1CC[C@@H]2[C@H](CO)Nc3ccc(C#Cc4ccccc4F)cc3[C@@H]21", "Gaussia minus Italica difference (%)": "-11.34"}
{"smiles": "O=C(C[C@H]1CC[C@@H]2[C@H](COC[C@@H](O)CN2Cc2ccc3c(c2)OCO3)O1)Nc1ccc(-c2ccccc2)cc1", "Gaussia minus Italica difference (%)": "14.4"}
{"smiles": "COc1ccc(NC(=O)Nc2ccc3c(c2)[C@@H]2C[C@H](CC(=O)NCCc4ccccc4)O[C@@H](CO)[C@@H]2O3)cc1", "Gaussia minus Italica difference (%)": "-9.756"}
{"smiles": "COCC(=O)N1CC2(CCN(Cc3ccc(Cl)cc3)CC2)c2c([nH]c3cc(OC)ccc23)[C@@H]1CO", "Gaussia minus Italica difference (%)": "32.77"}
{"smiles": "COc1ccccc1CN1CC2(C1)[C@H](c1ccccc1)[C@H](CO)N2Cc1ccccc1", "Gaussia minus Italica difference (%)": "-22.18"}
{"smiles": "CO[C@@H]1CN(C)C(=O)c2ccc(NC(=O)Nc3ccc(C(F)(F)F)cc3)cc2OC[C@H](C)NC[C@@H]1C", "Gaussia minus Italica difference (%)": "-10.6"}
{"smiles": "COC(=O)[C@H]1[C@H](CO)[C@H]2Cn3c(ccc(/C=C/c4ccccc4)c3=O)[C@@H]1N2CC1CCCC1", "Gaussia minus Italica difference (%)": "3.824"}
{"smiles": "Cc1ccc(S(=O)(=O)N2CC[C@H]3[C@H](CO)Nc4ccc(-c5cccc(C(=O)N(C)C)c5)cc4[C@H]32)cc1", "Gaussia minus Italica difference (%)": "6.283"}
{"smiles": "COc1cccc(CN2[C@@H](CO)[C@@H](c3ccccc3)C23CN(C(=O)C2CCCCC2)C3)c1", "Gaussia minus Italica difference (%)": "-8.592"}
{"smiles": "CN1c2ccc(-c3cccc(F)c3)cc2[C@H]2[C@H](CCN2C(=O)c2cccc(F)c2)[C@@H]1CO", "Gaussia minus Italica difference (%)": "-4.043"}
{"smiles": "Cc1ccccc1-c1ccc([C@H]2[C@@H](CO)N3C(=O)CN(C(=O)c4ccc(F)cc4)C[C@@H]23)cc1", "Gaussia minus Italica difference (%)": "-7.377"}
{"smiles": "CO[C@@H]1CN(C)C(=O)c2ccc(NC(=O)c3cccc(Oc4ccccc4)c3)cc2OC[C@@H](C)NC[C@H]1C", "Gaussia minus Italica difference (%)": "10.83"}
{"smiles": "Cc1ccccc1-c1ccccc1[C@H]1[C@@H](CO)N(C(=O)c2ccccc2)[C@H]1C#N", "Gaussia minus Italica difference (%)": "-21.25"}
{"smiles": "O=C(C[C@H]1CC[C@@H]2[C@H](COC[C@@H](O)CN2C(=O)Nc2ccc(C(F)(F)F)cc2)O1)NCC1CCCCC1", "Gaussia minus Italica difference (%)": "-0.9519"}
{"smiles": "CC(C)NC(=O)N1[C@@H](CO)[C@@H](c2ccccc2)C12CN(Cc1ccccc1)C2", "Gaussia minus Italica difference (%)": "-13.67"}

The first 3 entries again:

- Cc1ccccc1S(=O)(=O)N(C)C[C@H]1OCc2ccccc2-c2c(n(C)c3ccccc23)C(=O)N([C@@H](C)CO)C[C@@H]1C : Gaussia minus Italica difference -10.77%
- C[C@@H]1CN([C@H](C)CO)C(=O)CCCn2nncc2CO[C@@H]1CN(C)Cc1ccccc1C(F)(F)F : Gaussia minus Italica difference -5.217%
- COc1ccc2c3c(n(C)c2c1)[C@H](CO)N(Cc1ccccc1Cl)CC31CCN(C(=O)CC2CC2)CC1 : Gaussia minus Italica difference -8.157%